{
  "source": "patent US8987449B2",
  "about": "“Medicine for treating ischemic brain injury and its sequelae, and preparation method thereof” (Haimin Lei, priority 2011, dated 2015)",
  "system": "VEGF",
  "assay": "VEGF expression in the cortex infarction zone (immunohistochemistry SP two-step method)",
  "format": "in vivo, rat",
  "conditions": "MCAO rats, Nimodipine group, vs model group",
  "note": "At least one compound was matched to its structure with a doubt left.",
  "data": [
    {"compound": "COCCOC(=O)C1=C(C)NC(C)=C(C(=O)OC(C)C)C1c1cccc([N+](=O)[O-])c1", "note": "(stereo not shown) [Nimodipine, reference compound]", "values": [
      {"measurement": "VEGF expression in the rat cerebral infarction zone", "value": "more than that of the model group"}
    ]}
  ]
}
